The list shows a part of the results. Most entries show no effect beyond the scatter of the controls.
Each target was assayed with CC1(C)S[C@@H]2[C@H](NC(=O)[C@H](N)c3ccccc3)C(=O)N2[C@H]1C(=O)O [ampicillin] (assay: log2 fold change of tryptic peptide abundance, ligand vs vehicle (limited proteolysis) (log2 ratio); higher = more trypsin-susceptible (destabilized)). Settings: ligand concentration: 10 uM; sample: E. coli crude lysate.

Sequences of proteins named here, by UniProt entry; tags and fusion partners are left off. A change or cut given only in a name is not applied to a line headed by its entry.
UniProt P77475: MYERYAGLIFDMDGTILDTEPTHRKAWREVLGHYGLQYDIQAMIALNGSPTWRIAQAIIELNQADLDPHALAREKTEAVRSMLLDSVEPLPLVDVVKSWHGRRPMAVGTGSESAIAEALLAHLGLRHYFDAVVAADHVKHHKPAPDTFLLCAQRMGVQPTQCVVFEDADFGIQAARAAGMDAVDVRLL
UniProt P76396: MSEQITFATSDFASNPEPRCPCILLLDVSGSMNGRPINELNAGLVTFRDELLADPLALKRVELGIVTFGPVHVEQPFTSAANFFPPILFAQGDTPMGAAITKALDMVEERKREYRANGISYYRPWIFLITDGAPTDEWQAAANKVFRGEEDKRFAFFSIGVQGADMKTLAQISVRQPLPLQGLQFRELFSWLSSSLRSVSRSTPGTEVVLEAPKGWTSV
UniProt P76250: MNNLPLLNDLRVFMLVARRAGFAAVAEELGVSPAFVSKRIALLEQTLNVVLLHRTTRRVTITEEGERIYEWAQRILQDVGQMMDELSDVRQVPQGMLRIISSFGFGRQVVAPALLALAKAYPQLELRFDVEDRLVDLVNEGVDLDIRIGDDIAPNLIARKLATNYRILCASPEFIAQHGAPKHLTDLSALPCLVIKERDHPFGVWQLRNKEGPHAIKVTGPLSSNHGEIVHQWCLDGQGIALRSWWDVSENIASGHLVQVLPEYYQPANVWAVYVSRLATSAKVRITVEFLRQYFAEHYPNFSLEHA
UniProt P77302: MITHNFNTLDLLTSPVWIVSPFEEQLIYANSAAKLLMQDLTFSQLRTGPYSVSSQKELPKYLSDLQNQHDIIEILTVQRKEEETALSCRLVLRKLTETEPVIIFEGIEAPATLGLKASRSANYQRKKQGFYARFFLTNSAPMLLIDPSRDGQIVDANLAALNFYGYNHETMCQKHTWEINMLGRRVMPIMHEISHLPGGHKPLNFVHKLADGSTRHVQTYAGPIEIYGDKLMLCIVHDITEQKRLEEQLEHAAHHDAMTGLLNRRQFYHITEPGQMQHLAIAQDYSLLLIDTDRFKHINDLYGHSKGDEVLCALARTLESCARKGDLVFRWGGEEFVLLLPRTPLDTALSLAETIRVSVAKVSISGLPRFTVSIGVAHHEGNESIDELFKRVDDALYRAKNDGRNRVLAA
UniProt P75974: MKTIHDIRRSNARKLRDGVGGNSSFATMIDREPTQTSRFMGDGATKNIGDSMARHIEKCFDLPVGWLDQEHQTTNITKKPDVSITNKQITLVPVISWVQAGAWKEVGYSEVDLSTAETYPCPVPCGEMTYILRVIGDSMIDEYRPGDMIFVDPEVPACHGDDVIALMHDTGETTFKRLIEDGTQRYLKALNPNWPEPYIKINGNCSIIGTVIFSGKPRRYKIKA

| Target | log2 fold change |
| --- | --- |
| UniProt P77475 (peptide sequence: YAGLIFDMDGTILDTEPTHRK, peptide start residue: 5) | 0.535 |
| UniProt P76396 (peptide sequence: STPGTEVVLEAPK, peptide start residue: 202) | 0.238 |
| UniProt P76250 (peptide sequence: AGFAAVAEELGVSPAFVSKR, peptide start residue: 20) | 0.473 |
| UniProt P77302 (peptide sequence: KKQGFYAR, peptide start residue: 126) | -0.701 |
| UniProt P75974 (peptide sequence: PDVSITNK, peptide start residue: 80) | -0.275 |

Reference: the supplement of paper PMC12819154, “High-throughput peptide-centric local stability assay extends protein–ligand identification to membrane proteins, tissues and bacteria” (Nature Structural & Molecular Biology, 2025)
